Reference: PubChem BioAssay AID248 (DTP/NCI, 2004)
The list does not hold the whole screen: it is rich in T/C values a quarter to a half above the control, in often repeated tests (any T/C) and in doses without a T/C. Other doses and runs of a compound stand elsewhere. T/C is the treated group as % of the vehicle group. Some doses have a count of surviving animals in place of a T/C: the source files T/C as zero there, which appears to mark a toxic dose or a test without result, not a measured value. Some survivor counts are full or nearly so, which does not show that the dose was tolerated: the source hardly ever lists a survival T/C far under the control, and the zero likely stands for such cases as well. Survivors were counted at the toxicity check, usually on the fifth day, unless a day is given; later deaths do not show. Schedules are NCI's codes, read here as Q, the interval in days (D) or hours (H), X, the number of doses. Some schedule codes hold Z or #, which are not explained here. Some doses were run more than once; the results are listed from low to high. Where survival is the endpoint, this PubChem deposit counts one and a half times the control or more as active, and values a quarter to a half above the control carry no call in these data; other NCI protocols may use other cut-offs. Some T/C values carry the count of animals alive at the toxicity check (mostly the fifth day); without a count, all were alive then.

System: L1210 leukemia ip in BDF1 mice, survival T/C
Assay: NCI In Vivo Anticancer Drug Screen. Data for tumor model L1210 Leukemia (intraperitoneal) in B6D2F1 (BDF1) mice
Conditions: T/C endpoint: mean survival time, higher T/C = longer survival
[1] = dose: 400.0 mg/kg/injection, schedule: Q04DX003 (ip), vehicle: saline

## CN(C)[C@@H]1C(=O)C(C(=O)NCNC(Cc2ccc(N(CCCl)CCCl)cc2)C(=O)O)=C(O)[C@@]2(O)C(=O)C3=C(O)c4c(O)cccc4[C@@](C)(O)[C@H]3C[C@@H]12 (stereo not given in full)
dose: 3.0 mg/kg/injection, schedule: Q01DX009 (ip), vehicle: other
  T/C: 125 % of control
dose: 4.4 mg/kg/injection, schedule: Q01DX009 (ip), vehicle: other
  T/C: 127 % of control
dose: 9.38 mg/kg/injection, schedule: Q01DX009 (ip), vehicle: saline
  T/C: 141 % of control [5 of 6 alive]
dose: 13.0 mg/kg/injection, schedule: Q01DX001 (ip), vehicle: other
  T/C: 129 % of control
dose: 20.0 mg/kg/injection, schedule: Q01DX001 (ip), vehicle: other
  T/C: 131 % of control
dose: 30.0 mg/kg/injection, schedule: Q01DX009 (ip), vehicle: other
  T/C: 132 % of control
dose: 50.0 mg/kg/injection, schedule: Q01DX009 (ip), vehicle: other
  survivor count: 6 of 6
dose: 150.0 mg/kg/injection, schedule: Q01DX001 (ip), vehicle: other
  survivor count: 6 of 6
dose: 150.0 mg/kg/injection, schedule: Q01DX001 (ip), vehicle: saline
  T/C: 141 % of control
dose: 150.0 mg/kg/injection, schedule: Q01DX009 (ip), vehicle: saline
  survivor count: 6 of 6

## Nc1c(Cl)ncnc1NC1CCC(CO)C1 (stereo not given)
dose: 400.0 mg/kg/injection, schedule: Q01DX001 (ip), vehicle: carboxymethylcellulose (CMC)
  survivor count: 0 of 4

## O=C(O)C1C(C(=O)O)C2(Cl)C(Cl)=C(Cl)C1(Cl)C2(Cl)Cl.[Mn] (stereo not given)
dose: 100.0 mg/kg/injection, schedule: Q01DX009 (ip), vehicle: saline sonified
  T/C: 126 % of control
dose: 400.0 mg/kg/injection, schedule: Q04DX003 (ip), vehicle: Klucel (hydroxypropylcellulose) (HPC)
  survivor count: 0 of 6

## CCc1ccccc1NC(=S)NC1CCCCC1
dose: 400.0 mg/kg/injection, schedule: Q01DX009 (ip), vehicle: Klucel (hydroxypropylcellulose) (HPC)
  survivor count: 0 of 6

## CC(C)C[CH2][Pb]([CH2]CC(C)C)([CH2]CC(C)C)[O]C(=O)C(C)C
dose: 6.25 mg/kg/injection, schedule: Q01DX009 (ip), vehicle: Klucel (hydroxypropylcellulose) (HPC)
  survivor count: 1 of 6
dose: 12.5 mg/kg/injection, schedule: Q04DX002 (ip), vehicle: Klucel (hydroxypropylcellulose) (HPC)
  survivor count: 0 of 3 and 3 of 3
dose: 25.0 mg/kg/injection, schedule: Q04DX002 (ip), vehicle: Klucel (hydroxypropylcellulose) (HPC)
  survivor count: 2 of 3
dose: 50.0 mg/kg/injection, schedule: Q04DX002 (ip), vehicle: Klucel (hydroxypropylcellulose) (HPC)
  survivor count: 0 of 3
dose: 100.0 mg/kg/injection, schedule: Q04DX002 (ip), vehicle: Klucel (hydroxypropylcellulose) (HPC)
  survivor count: 1 of 3
dose: 200.0 mg/kg/injection, schedule: Q04DX002 (ip), vehicle: Klucel (hydroxypropylcellulose) (HPC)
  survivor count: 1 of 3
dose: 400.0 mg/kg/injection, schedule: Q04DX002 (ip), vehicle: Klucel (hydroxypropylcellulose) (HPC)
  survivor count: 0 of 3

## CC(C)(C#N)C(C)(C)C#N
dose: 12.5 mg/kg/injection, schedule: Q04DX003 (ip), vehicle: saline with Tween-80
  survivor count: 0 of 6
dose: 25.0 mg/kg/injection, schedule: Q04DX003 (ip), vehicle: saline with Tween-80
  survivor count: 0 of 6 and 6 of 6
dose: 50.0 mg/kg/injection, schedule: Q04DX003 (ip), vehicle: saline with Tween-80
  survivor count: 0 of 6 and 5 of 6
dose: 100.0 mg/kg/injection, schedule: Q04DX003 (ip), vehicle: saline with Tween-80
  survivor count: 0 of 6 and 6 of 6

## CN1CC(COC(=O)CCc2ccc(N(CCCl)CCCl)cc2)C=C2c3cccc4[nH]cc(c34)C[C@H]21 (stereo not given in full)
dose: 25.0 mg/kg/injection, schedule: Q01DX009 (ip), vehicle: saline
  T/C: 133 % of control
dose: 100.0 mg/kg/injection, schedule: Q04DX003 (ip), vehicle: saline
  T/C: 130 % of control
dose: 200.0 mg/kg/injection, schedule: Q01DX009 (ip), vehicle: saline
  survivor count: 1 of 6
dose: 200.0 mg/kg/injection, schedule: Q04DX003 (ip), vehicle: saline
  survivor count: 3 of 6
[1]
  T/C: 130 % of control [4 of 6 alive]
  survivor count: 0 of 6

## Cc1nccc2c(C)c3c(cc12)c1ccccc1n3CCC1CO1 (stereo not given)
dose: 300.0 mg/kg/injection, schedule: Q04DX003 (ip), vehicle: water
  T/C: 128 % of control

## OC(c1ccc(Cl)cc1)(c1ccc(Cl)cc1)C(F)(F)F
dose: 400.0 mg/kg/injection, schedule: Q01DX009 (sc), vehicle: olive oil, sesame oil, peanut oil
  survivor count: 6 of 6

## NCCOc1ccc([N+](=O)[O-])cc1Cl
[1]
  survivor count: 2 of 6

## CCN=C(N)c1ccc(N=C(N)c2cccc(C(N)=Nc3ccc(C(N)=NCC)cc3)c2)cc1
dose: 7.5 mg/kg/injection, schedule: Q01DX Z (ip), vehicle: saline
  T/C: 132 % of control
dose: 15.0 mg/kg/injection, schedule: Q01DX Z (ip), vehicle: saline
  survivor count: 1 of 6
dose: 30.0 mg/kg/injection, schedule: Q01DX Z (ip), vehicle: saline
  survivor count: 0 of 6
dose: 60.0 mg/kg/injection, schedule: Q01DX Z (ip), vehicle: saline
  survivor count: 0 of 6
dose: 120.0 mg/kg/injection, schedule: Q01DX Z (ip), vehicle: saline
  survivor count: 0 of 6

## CCCCS(=O)/C=C\S(=O)CCCC (stereo not given)
dose: 400.0 mg/kg/injection, schedule: Q04DX002 (ip), vehicle: saline
  survivor count: 0 of 3
